To fix the notation:
T1: Flag-USP40 (in HLMVECs) (human) (UniProt Q9NVE5)
T1 sequence: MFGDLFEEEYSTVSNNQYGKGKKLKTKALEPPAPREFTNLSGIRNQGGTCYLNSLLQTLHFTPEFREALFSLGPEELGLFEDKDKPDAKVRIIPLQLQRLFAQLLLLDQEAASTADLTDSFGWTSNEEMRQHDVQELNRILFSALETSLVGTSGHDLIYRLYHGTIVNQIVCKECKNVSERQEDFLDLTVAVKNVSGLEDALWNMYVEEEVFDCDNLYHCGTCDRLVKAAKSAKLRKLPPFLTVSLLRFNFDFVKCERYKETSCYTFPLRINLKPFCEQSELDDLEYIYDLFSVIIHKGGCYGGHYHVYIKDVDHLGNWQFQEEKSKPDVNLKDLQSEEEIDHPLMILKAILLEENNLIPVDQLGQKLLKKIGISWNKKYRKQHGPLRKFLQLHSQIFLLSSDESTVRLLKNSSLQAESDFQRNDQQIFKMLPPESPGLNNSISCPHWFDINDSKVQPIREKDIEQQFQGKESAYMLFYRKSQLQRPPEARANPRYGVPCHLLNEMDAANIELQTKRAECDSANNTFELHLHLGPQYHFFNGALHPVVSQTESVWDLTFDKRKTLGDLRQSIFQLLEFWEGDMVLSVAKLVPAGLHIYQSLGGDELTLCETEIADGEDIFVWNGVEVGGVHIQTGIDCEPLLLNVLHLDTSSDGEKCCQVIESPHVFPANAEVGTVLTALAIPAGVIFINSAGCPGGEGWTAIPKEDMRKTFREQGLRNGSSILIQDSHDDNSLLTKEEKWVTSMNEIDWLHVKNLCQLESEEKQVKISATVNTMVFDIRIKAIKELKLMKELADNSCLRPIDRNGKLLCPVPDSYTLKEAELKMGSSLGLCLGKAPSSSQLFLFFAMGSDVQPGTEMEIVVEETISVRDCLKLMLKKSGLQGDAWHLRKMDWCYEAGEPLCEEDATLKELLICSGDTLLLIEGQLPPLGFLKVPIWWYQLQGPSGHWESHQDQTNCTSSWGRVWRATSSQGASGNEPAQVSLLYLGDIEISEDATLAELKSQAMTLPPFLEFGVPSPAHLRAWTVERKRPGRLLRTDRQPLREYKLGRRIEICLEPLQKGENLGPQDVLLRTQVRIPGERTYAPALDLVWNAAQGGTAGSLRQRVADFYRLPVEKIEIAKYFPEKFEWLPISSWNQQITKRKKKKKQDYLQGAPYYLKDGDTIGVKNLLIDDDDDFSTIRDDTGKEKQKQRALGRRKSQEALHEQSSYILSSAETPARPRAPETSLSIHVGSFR

B1: Ataxin-2-like protein (protein, UniProt Q8WWM7 1-1075)
chain: MLKPQPLQQPSQPQQPPPTQQAVARRPPGGTSPPNGGLPGPLATSAAPPGPPAAASPCLGPVAAAGSGLRRGAEGILAPQPPPPQQHQERPGAAAIGSARGQSTGKGPPQSPVFEGVYNNSRMLHFLTAVVGSTCDVKVKNGTTYEGIFKTLSSKFELAVDAVHRKASEPAGGPRREDIVDTMVFKPSDVMLVHFRNVDFNYATKDKFTDSAIAMNSKVNGEHKEKVLQRWEGGDSNSDDYDLESDMSNGWDPNEMFKFNEENYGVKTTYDSSLSSYTVPLEKDNSEEFRQRELRAAQLAREIESSPQYRLRIAMENDDGRTEEEKHSAVQRQGSGRESPSLASREGKYIPLPQRVREGPRGGVRCSSSRGGRPGLSSLPPRGPHHLDNSSPGPGSEARGINGGPSRMSPKAQRPLRGAKTLSSPSNRPSGETSVPPPPAVGRMYPPRSPKSAAPAPISASCPEPPIGSAVPTSSASIPVTSSVSDPGVGSISPASPKISLAPTDVKELSTKEPGRTLEPQELARIAGKVPGLQNEQKRFQLEELRKFGAQFKLQPSSSPENSLDPFPPRILKEEPKGKEKEVDGLLTSEPMGSPVSSKTESVSDKEDKPPLAPSGGTEGPEQPPPPCPSQTGSPPVGLIKGEDKDEGPVAEQVKKSTLNPNAKEFNPTKPLLSVNKSTSTPTSPGPRTHSTPSIPVLTAGQSGLYSPQYISYIPQIHMGPAVQAPQMYPYPVSNSVPGQQGKYRGAKGSLPPQRSDQHQPASAPPMMQAAAAAGPPLVAATPYSSYIPYNPQQFPGQPAMMQPMAHYPSQPVFAPMLQSNPRMLTSGSHPQAIVSSSTPQYPSAEQPTPQALYATVHQSYPHHATQLHAHQPQPATTPTGSQPQSQHAAPSPVQHQAGQAPHLGSGQPQQNLYHPGALTGTPPSLPPGPSAQSPQSSFPQPAAVYAIHHQQLPHGFTNMAHVTQAHVQTGITAAPPPHPGAPHPPQVMLLHPPQSHGGPPQGAVPQSGVPALSASTPSPYPYIGHPQGEQPGQAPGFPGGADDRIREFSLAGGIWHGRAEGLQVGQDARVLGGE
B2: Protein phosphatase 1B (protein, UniProt O75688 1-479)
chain: MGAFLDKPKTEKHNAHGAGNGLRYGLSSMQGWRVEMEDAHTAVVGIPHGLEDWSFFAVYDGHAGSRVANYCSTHLLEHITTNEDFRAAGKSGSALELSVENVKNGIRTGFLKIDEYMRNFSDLRNGMDRSGSTAVGVMISPKHIYFINCGDSRAVLYRNGQVCFSTQDHKPCNPREKERIQNAGGSVMIQRVNGSLAVSRALGDYDYKCVDGKGPTEQLVSPEPEVYEILRAEEDEFIILACDGIWDVMSNEELCEYVKSRLEVSDDLENVCNWVVDTCLHKGSRDNMSIVLVCFSNAPKVSDEAVKKDSELDKHLESRVEEIMEKSGEEGMPDLAHVMRILSAENIPNLPPGGGLAGKRNVIEAVYSRLNPHRESDGASDEAEESGSQGKLVEALRQMRINHRGNYRQLLEEMLTSYRLAKVEGEESPAEPAATATSSNSDAGNPVTMQESHTESESGLAELDSSNEDAGTKMSGEKI
B3: Isoform 2 of Protein flightless-1 homolog (protein, UniProt Q13045-2 1-1214)
chain: MEATGVLPFVRGVDLSGNDFKGGYFPENVKAMTSLRWLKLNRTGLCYLPEELAALQKLEHLSVSHNNLTTLHGELSSLPSLRAIVARANSLKNSGVPDDIFKLDDLSVLDLSHNQLTECPRELENAKNMLVLNLSHNRQLPAMTALQTLHLRSTQRTQSNLPTSLEGLSNLADVDLSCNDLTRVPECLYTLPSLRRLNLSSNQITELSLCIDQWVHVETLNLSRNQLTSLPSAICKLSKLKKLYLNSNKLDFDGLPSGIGKLTNLEEFMAANNNLELVPESLCRCPKLRKLVLNKNHLVTLPEAIHFLTEIEVLDVRENPNLVMPPKPADRAAEWYNIDFSLQNQLRLAGASPATVAAAAAGSGPKDPMARKMRLRRRKDSAQDDQAKQVLKGMSDVAQEKNKKQEESADARAPSGKVRRWDQGLEKPRLDYSEFFTEDVGQLPGLTIWQIENFVPVLVEEAFHGKFYEADCYIVLKTFLDDSGSLNWEIYYWIGGEATLDKKACSAIHAVNLRNYLGAECRTVREEMGDESEEFLQVFDNDISYIEGGTASGFYTVEDTHYVTRMYRVYGKKNIKLEPVPLKGTSLDPRFVFLLDRGLDIYVWRGAQATLSSTTKARLFAEKINKNERKGKAEITLLVQGQELPEFWEALGGEPSEIKKHVPEDFWPPQPKLYKVGLGLGYLELPQINYKLSVEHKQRPKVELMPRMRLLQSLLDTRCVYILDCWSDVFIWLGRKSPRLVRAAALKLGQELCGMLHRPRHATVSRSLEGTEAQVFKAKFKNWDDVLTVDYTRNAEAVLQSPGLSGKVKRDAEKKDQMKADLTALFLPRQPPMSLAEAEQLMEEWNEDLDGMEGFVLEGKKFARLPEEEFGHFYTQDCYVFLCRYWVPVEYEEEEKKEDKEEKAEGKEGEEATAEAEEKQPEEDFQCIVYFWQGREASNMGWLTFTFSLQKKFESLFPGKLEVVRMTQQQENPKFLSHFKRKFIIHRGKRKAVQGAQQPSLYQIRTNGSALCTRCIQINTDSSLLNSEFCFILKVPFESEDNQGIVYAWVGRASDPDEAKLAEDILNTMFDTSYSKQVINEGEEPENFFWVGIGAQKPYDDDAEYMKHTRLFRCSNEKGYFAVTEKCSDFCQDDLADDDIMLLDNGQEVYMWVGTQTSQVEIKLSLKACQVYIQHMRSKEHERPRRLRLVRKGNEQHAFTRCFHAWSAFCKALA
B4: SCY1-like protein 2 (protein, UniProt Q6P3W7 1-929)
chain: MESMLNKLKSTVTKVTADVTSAVMGNPVTREFDVGRHIASGGNGLAWKIFNGTKKSTKQEVAVFVFDKKLIDKYQKFEKDQIIDSLKRGVQQLTRLRHPRLLTVQHPLEESRDCLAFCTEPVFASLANVLGNWENLPSPISPDIKDYKLYDVETKYGLLQVSEGLSFLHSSVKMVHGNITPENIILNKSGAWKIMGFDFCVSSTNPSEQEPKFPCKEWDPNLPSLCLPNPEYLAPEYILSVSCETASDMYSLGTVMYAVFNKGKPIFEVNKQDIYKSFSRQLDQLSRLGSSSLTNIPEEVREHVKLLLNVTPTVRPDADQMTKIPFFDDVGAVTLQYFDTLFQRDNLQKSQFFKGLPKVLPKLPKRVIVQRILPCLTSEFVNPDMVPFVLPNVLLIAEECTKEEYVKLILPELGPVFKQQEPIQILLIFLQKMDLLLTKTPPDEIKNSVLPMVYRALEAPSIQIQELCLNIIPTFANLIDYPSMKNALIPRIKNACLQTSSLAVRVNSLVCLGKILEYLDKWFVLDDILPFLQQIPSKEPAVLMGILGIYKCTFTHKKLGITKEQLAGKVLPHLIPLSIENNLNLNQFNSFISVIKEMLNRLESEHKTKLEQLHIMQEQQKSLDIGNQMNVSEEMKVTNIGNQQIDKVFNNIGADLLTGSESENKEDGLQNKHKRASLTLEEKQKLAKEQEQAQKLKSQQPLKPQVHTPVATVKQTKDLTDTLMDNMSSLTSLSVSTPKSSASSTFTSVPSMGIGMMFSTPTDNTKRNLTNGLNANMGFQTSGFNMPVNTNQNFYSSPSTVGVTKMTLGTPPTLPNFNALSVPPAGAKQTQQRPTDMSALNNLFGPQKPKVSMNQLSQQKPNQWLNQFVPPQGSPTMGSSVMGTQMNVIGQSAFGMQGNPFFNPQNFAQPPTTMTNSSSASNDLKDLFG
B5: Peroxiredoxin-1 (protein, UniProt Q06830 1-199)
chain: MSSGNAKIGHPAPNFKATAVMPDGQFKDISLSDYKGKYVVFFFYPLDFTFVCPTEIIAFSDRAEEFKKLNCQVIGASVDSHFCHLAWVNTPKKQGGLGPMNIPLVSDPKRTIAQDYGVLKADEGISFRGLFIIDDKGILRQITVNDLPVGRSVDETLRLVQAFQFTDKHGEVCPAGWKPGSDTIKPDVQKSKEYFSKQK
B6: Protein-glutamine gamma-glutamyltransferase 2 (protein, UniProt P21980 1-687)
chain: MAEELVLERCDLELETNGRDHHTADLCREKLVVRRGQPFWLTLHFEGRNYEASVDSLTFSVVTGPAPSQEAGTKARFPLRDAVEEGDWTATVVDQQDCTLSLQLTTPANAPIGLYRLSLEASTGYQGSSFVLGHFILLFNAWCPADAVYLDSEEERQEYVLTQQGFIYQGSAKFIKNIPWNFGQFEDGILDICLILLDVNPKFLKNAGRDCSRRSSPVYVGRVVSGMVNCNDDQGVLLGRWDNNYGDGVSPMSWIGSVDILRRWKNHGCQRVKYGQCWVFAAVACTVLRCLGIPTRVVTNYNSAHDQNSNLLIEYFRNEFGEIQGDKSEMIWNFHCWVESWMTRPDLQPGYEGWQALDPTPQEKSEGTYCCGPVPVRAIKEGDLSTKYDAPFVFAEVNADVVDWIQQDDGSVHKSINRSLIVGLKISTKSVGRDEREDITHTYKYPEGSSEEREAFTRANHLNKLAEKEETGMAMRIRVGQSMNMGSDFDVFAHITNNTAEEYVCRLLLCARTVSYNGILGPECGTKYLLNLNLEPFSEKSVPLCILYEKYRDCLTESNLIKVRALLVEPVINSYLLAERDLYLENPEIKIRILGEPKQKRKLVAEVSLQNPLPVALEGCTFTVEGAGLTEEQKTVEIPDPVEAGEEVKVRMDLLPLHMGLHKLVVNFESDKLKAVKGFRNVIIGPA

No constants are given. Whether binding was seen depends on the method and setting. Binding seen in cells or lysates may run through a third protein. These calls come from enrichment with a bait or labelling near it, and not all partners need be listed. Where a sequence is shown, tags or fusion partners need not be part of it.

The test has as its target T1, Flag-USP40 (in HLMVECs) (human). The test is described as follows: affinity purification with mass spectrometry; Flag-USP40 immunoprecipitated from transfected HLMVECs with FLAG-M2 affinity gel; eluted under reducing conditions, SDS-PAGE, Coomassie, bands excised, in-gel trypsin digestion, LC-MS.
Consider B1, for which the binding result was “binds”.
As to B2, the binding entry was “binds”.
For the molecule B3, the binding result is “binds”.
In the case of B4, the binding entry is recorded as “binds”.
Consider B5, for which the binding result is listed as “binds”.
Turning to B6, the binding entry is given as “binds”.

Values taken from paper PMC10907362.
